The target of assay [1] is T1, FLOT1 (human (endogenous in HEK293)) (UniProt O75955).
T1 sequence: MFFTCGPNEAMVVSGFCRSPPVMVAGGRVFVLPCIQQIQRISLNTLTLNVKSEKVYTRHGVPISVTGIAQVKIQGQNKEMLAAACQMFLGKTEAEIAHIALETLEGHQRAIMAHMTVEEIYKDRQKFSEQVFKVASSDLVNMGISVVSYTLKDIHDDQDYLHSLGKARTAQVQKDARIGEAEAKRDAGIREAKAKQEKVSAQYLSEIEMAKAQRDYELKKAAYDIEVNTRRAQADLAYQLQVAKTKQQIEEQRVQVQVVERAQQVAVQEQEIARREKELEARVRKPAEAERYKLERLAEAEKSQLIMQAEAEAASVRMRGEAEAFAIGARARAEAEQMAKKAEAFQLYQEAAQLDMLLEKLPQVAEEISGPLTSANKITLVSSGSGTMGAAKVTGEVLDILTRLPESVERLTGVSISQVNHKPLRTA
Briefly: co-IP.

The target in assay [2] is T2, FLOT2 (human (endogenous in HEK293)) (UniProt Q14254).
T2 sequence: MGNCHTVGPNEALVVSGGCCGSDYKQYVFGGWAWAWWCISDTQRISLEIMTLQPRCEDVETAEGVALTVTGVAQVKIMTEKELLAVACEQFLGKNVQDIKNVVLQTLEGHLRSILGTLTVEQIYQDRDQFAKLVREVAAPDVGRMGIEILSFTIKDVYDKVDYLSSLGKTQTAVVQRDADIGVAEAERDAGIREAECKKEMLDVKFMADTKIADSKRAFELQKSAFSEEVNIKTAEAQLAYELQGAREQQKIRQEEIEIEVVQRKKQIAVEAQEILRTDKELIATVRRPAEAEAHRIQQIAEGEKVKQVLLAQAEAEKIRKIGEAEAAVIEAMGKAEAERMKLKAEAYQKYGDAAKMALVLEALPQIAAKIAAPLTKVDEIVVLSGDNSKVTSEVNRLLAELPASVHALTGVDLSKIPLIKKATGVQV
Briefly: co-IP.

Assay [3] addresses T2, FLOT2 (human (endogenous in HEK293)). The experiment in a line: cross-linking.

These are yes or no findings as the source states them, for the method shown. In cells and extracts the contact can be indirect. Some binding calls cover weakened binding; strength is not graded here.

B1: LPHN2 (receptor, UniProt O95490 26-1459)
chain: FSRAALPFGLVRRELSCEGYSIDLRCPGSDVIMIESANYGRTDDKICDADPFQMENTDCYLPDAFKIMTQRCNNRTQCIVVTGSDVFPDPCPGTYKYLEVQYECVPYIFVCPGTLKAIVDSPCIYEAEQKAGAWCKDPLQAADKIYFMPWTPYRTDTLIEYASLEDFQNSRQTTTYKLPNRVDGTGFVVYDGAVFFNKERTRNIVKFDLRTRIKSGEAIINYANYHDTSPYRWGGKTDIDLAVDENGLWVIYATEQNNGMIVISQLNPYTLRFEATWETVYDKRAASNAFMICGVLYVVRSVYQDNESETGKNSIDYIYNTRLNRGEYVDVPFPNQYQYIAAVDYNPRDNQLYVWNNNFILRYSLEFGPPDPAQVPTTAVTITSSAELFKTIISTTSTTSQKGPMSTTVAGSQEGSKGTKPPPAVSTTKIPPITNIFPLPERFCEALDSKGIKWPQTQRGMMVERPCPKGTRGTASYLCMISTGTWNPKGPDLSNCTSHWVNQLAQKIRSGENAASLANELAKHTKGPVFAGDVSSSVRLMEQLVDILDAQLQELKPSEKDSAGRSYNKLQKREKTCRAYLKAIVDTVDNLLRPEALESWKHMNSSEQAHTATMLLDTLEEGAFVLADNLLEPTRVSMPTENIVLEVAVLSTEGQIQDFKFPLGIKGAGSSIQLSANTVKQNSRNGLAKLVFIIYRSLGQFLSTENATIKLGADFIGRNSTIAVNSHVISVSINKESSRVYLTDPVLFTLPHIDPDNYFNANCSFWNYSERTMMGYWSTQGCKLVDTNKTRTTCACSHLTNFAILMAHREIAYKDGVHELLLTVITWVGIVISLVCLAICIFTFCFFRGLQSDRNTIHKNLCINLFIAEFIFLIGIDKTKYAIACPIFAGLLHFFFLAAFAWMCLEGVQLYLMLVEVFESEYSRKKYYYVAGYLFPATVVGVSAAIDYKSYGTEKACWLHVDNYFIWSFIGPVTFIILLNIIFLVITLCKMVKHSNTLKPDSSRLENIKSWVLGAFALLCLLGLTWSFGLLFINEETIVMAYLFTIFNAFQGVFIFIFHCALQKKVRKEYGKCFRHSYCCGGLPTESPHSSVKASTTRTSARYSSGTQSRIRRMWNDTVRKQSESSFISGDINSTSTLNQGMTGNYLLTNPLLRPHGTNNPYNTLLAETVVCNAPSAPVFNSPGHSLNNARDTSAMDTLPLNGNFNNSYSLHKGDYNDSVQVVDCGLSLNDTAFEKMIISELVHNNLRGSSKTHNLELTLPVKPVIGGSSSEDDAIVADASSLMHSDNPGLELHHKELEAPLIPQRTHSLLYQPQKKVKSEGTDSYVSQLTAEAEDHLQSPNRDSLYTSMPNLRDSPYPESSPDMEEDLSPSRRSENEDIYYKSMPNLGAGHQLQMCYQISRGNSDGYIIPINKEGCIPEGDVREGQMQLVTSL
B1: the binding entry in assay [1] and in assay [2] was “binds” in each case.

B2: LPHN3 (receptor, UniProt Q9HAR2 20-1447)
chain: FSRAPIPMAVVRRELSCESYPIELRCPGTDVIMIESANYGRTDDKICDSDPAQMENIRCYLPDAYKIMSQRCNNRTQCAVVAGPDVFPDPCPGTYKYLEVQYECVPYKVEQKVFLCPGLLKGVYQSEHLFESDHQSGAWCKDPLQASDKIYYMPWTPYRTDTLTEYSSKDDFIAGRPTTTYKLPHRVDGTGFVVYDGALFFNKERTRNIVKFDLRTRIKSGEAIIANANYHDTSPYRWGGKSDIDLAVDENGLWVIYATEQNNGKIVISQLNPYTLRIEGTWDTAYDKRSASNAFMICGILYVVKSVYEDDDNEATGNKIDYIYNTDQSKDSLVDVPFPNSYQYIAAVDYNPRDNLLYVWNNYHVVKYSLDFGPLDSRSGQAHHGQVSYISPPIHLDSELERPSVKDISTTGPLGMGSTTTSTTLRTTTLSPGRSTTPSVSGRRNRSTSTPSPAVEVLDDMTTHLPSASSQIPALEESCEAVEAREIMWFKTRQGQIAKQPCPAGTIGVSTYLCLAPDGIWDPQGPDLSNCSSPWVNHITQKLKSGETAANIARELAEQTRNHLNAGDITYSVRAMDQLVGLLDVQLRNLTPGGKDSAARSLNKAMVETVNNLLQPQALNAWRDLTTSDQLRAATMLLHTVEESAFVLADNLLKTDIVRENTDNIKLEVARLSTEGNLEDLKFPENMGHGSTIQLSANTLKQNGRNGEIRVAFVLYNNLGPYLSTENASMKLGTEALSTNHSVIVNSPVITAAINKEFSNKVYLADPVVFTVKHIKQSEENFNPNCSFWSYSKRTMTGYWSTQGCRLLTTNKTHTTCSCNHLTNFAVLMAHVEVKHSDAVHDLLLDVITWVGILLSLVCLLICIFTFCFFRGLQSDRNTIHKNLCISLFVAELLFLIGINRTDQPIACAVFAALLHFFFLAAFTWMFLEGVQLYIMLVEVFESEHSRRKYFYLVGYGMPALIVAVSAAVDYRSYGTDKVCWLRLDTYFIWSFIGPATLIIMLNVIFLGIALYKMFHHTAILKPESGCLDNIKSWVIGAIALLCLLGLTWAFGLMYINESTVIMAYLFTIFNSLQGMFIFIFHCVLQKKVRKEYGKCLRTHCCSGKSTESSIGSGKTSGSRTPGRYSTGSQSRIRRMWNDTVRKQSESSFITGDINSSASLNREGLLNNARDTSVMDTLPLNGNHGNSYSIASGEYLSNCVQIIDRGYNHNETALEKKILKELTSNYIPSYLNNHERSSEQNRNLMNKLVNNLGSGREDDAIVLDDATSFNHEESLGLELIHEESDAPLLPPRVYSTENHQPHHYTRRRIPQDHSESFFPLLTNEHTEDLQSPHRDSLYTSMPTLAGVAATESVTTSTQTEPPPAKCGDAEDVYYKSMPNLGSRNHVHQLHTYYQLGRGSSDGFIVPPNKDGTPPEGSSKGPAHLVTSL
Consider B2, for which the binding result in assay [1] and in assay [2] was “binds” in each case.

B3: FLOT1 (protein, UniProt O75955 1-427)
chain: MFFTCGPNEAMVVSGFCRSPPVMVAGGRVFVLPCIQQIQRISLNTLTLNVKSEKVYTRHGVPISVTGIAQVKIQGQNKEMLAAACQMFLGKTEAEIAHIALETLEGHQRAIMAHMTVEEIYKDRQKFSEQVFKVASSDLVNMGISVVSYTLKDIHDDQDYLHSLGKARTAQVQKDARIGEAEAKRDAGIREAKAKQEKVSAQYLSEIEMAKAQRDYELKKAAYDIEVNTRRAQADLAYQLQVAKTKQQIEEQRVQVQVVERAQQVAVQEQEIARREKELEARVRKPAEAERYKLERLAEAEKSQLIMQAEAEAASVRMRGEAEAFAIGARARAEAEQMAKKAEAFQLYQEAAQLDMLLEKLPQVAEEISGPLTSANKITLVSSGSGTMGAAKVTGEVLDILTRLPESVERLTGVSISQVNHKPLRTA
For the molecule B3, the binding result in assay [2] and in assay [3] was “binds” in each case.

B4: LPHN1 (receptor, UniProt O94910 25-1474)
chain: LSRAGLPFGLMRRELACEGYPIELRCPGSDVIMVENANYGRTDDKICDADPFQMENVQCYLPDAFKIMSQRCNNRTQCVVVAGSDAFPDPCPGTYKYLEVQYDCVPYKVEQKVFVCPGTLQKVLEPTSTHESEHQSGAWCKDPLQAGDRIYVMPWIPYRTDTLTEYASWEDYVAARHTTTYRLPNRVDGTGFVVYDGAVFYNKERTRNIVKYDLRTRIKSGETVINTANYHDTSPYRWGGKTDIDLAVDENGLWVIYATEGNNGRLVVSQLNPYTLRFEGTWETGYDKRSASNAFMVCGVLYVLRSVYVDDDSEAAGNRVDYAFNTNANREEPVSLTFPNPYQFISSVDYNPRDNQLYVWNNYFVVRYSLEFGPPDPSAGPATSPPLSTTTTARPTPLTSTASPAATTPLRRAPLTTHPVGAINQLGPDLPPATAPVPSTRRPPAPNLHVSPELFCEPREVRRVQWPATQQGMLVERPCPKGTRGIASFQCLPALGLWNPRGPDLSNCTSPWVNQVAQKIKSGENAANIASELARHTRGSIYAGDVSSSVKLMEQLLDILDAQLQALRPIERESAGKNYNKMHKRERTCKDYIKAVVETVDNLLRPEALESWKDMNATEQVHTATMLLDVLEEGAFLLADNVREPARFLAAKENVVLEVTVLNTEGQVQELVFPQEEYPRKNSIQLSAKTIKQNSRNGVVKVVFILYNNLGLFLSTENATVKLAGEAGPGGPGGASLVVNSQVIAASINKESSRVFLMDPVIFTVAHLEDKNHFNANCSFWNYSERSMLGYWSTQGCRLVESNKTHTTCACSHLTNFAVLMAHREIYQGRINELLLSVITWVGIVISLVCLAICISTFCFLRGLQTDRNTIHKNLCINLFLAELLFLVGIDKTQYEIACPIFAGLLHYFFLAAFSWLCLEGVHLYLLLVEVFESEYSRTKYYYLGGYCFPALVVGIAAAIDYRSYGTEKACWLRVDNYFIWSFIGPVSFVIVVNLVFLMVTLHKMIRSSSVLKPDSSRLDNIKSWALGAIALLFLLGLTWAFGLLFINKESVVMAYLFTTFNAFQGVFIFVFHCALQKKVHKEYSKCLRHSYCCIRSPPGGTHGSLKTSAMRSNTRYYTGTQSRIRRMWNDTVRKQTESSFMAGDINSTPTLNRGTMGNHLLTNPVLQPRGGTSPYNTLIAESVGFNPSSPPVFNSPGSYREPKHPLGGREACGMDTLPLNGNFNNSYSLRSGDFPPGDGGPEPPRGRNLADAAAFEKMIISELVHNNLRGSSSAAKGPPPPEPPVPPVPGGGGEEEAGGPGGADRAEIELLYKALEEPLLLPRAQSVLYQSDLDESESCTAEDGATSRPLSSPPGRDSLYASGANLRDSPSYPDSSPEGPSEALPPPPPAPPGPPEIYYTSRPPALVARNPLQGYYQVRRPSHEGYLAAPGLEGPGPDGDGQMQLVTSL
In the case of B4, the binding result in assay [1] and in assay [2] was “binds” each time.

The record behind these values is doi:10.1101/2022.01.12.475930.
